Values joined by “and” are separate entries in the source; they are usually repeats but may differ in a detail not shown here. Identical values can stand only once.

The source of these data is patent US9951094B2, “Phosphole compound and fluorescent dye containing the same” (NATIONAL UNIVERSITY CORPORATION NAGOYA UNIVERSITY, priority 2014, dated 2018).

The subject of this data set is HeLa cells. Description: Cell staining experiment, confocal microscopy. Format: cell-based. Conditions: for Staining of cells (what was stained): 37° C.
The mark [1] stands for this setting: 10 mM, 24 hours, per-pixel spectra fitted.

Consider `O=P1(c2ccccc2)C(c2ccc(N(c3ccccc3)c3ccccc3)cc2)=C(c2ccccc2)c2ccccc21` (stereo not drawn) [Compound 1, 2-[4-(N,N-diphenylamino)phenyl]-1,3-diphenylbenzo[b]phosphole-P-oxide], for which, for the setting “10 mM aqueous solution with 0.1% dimethyl sulfoxide, 24 hours”, the “Staining of cells (what was stained)” value was “the entire cell compartments except nuclei were stained”. Under setting [1], the “Emission maximum of luminescence, cytoplasm” value came to 565 nm; the “Emission maximum of luminescence, many portions in the cytoplasm” value stood at 550 nm; the “Emission maximum of luminescence, portions around the surfaces of the cells” value was 530 nm.
As for `CN(C)c1ccc(C2=Cc3ccccc3P2(=O)c2ccccc2)cc1` (stereo not drawn) [Compound 3, 2-[4-(N,N-dimethylamino)phenyl]-1-phenylbenzo[b]phosphole-P-oxide], where the note is “100 nM aqueous solution with 0.001% dimethyl sulfoxide, one hour”, the “Staining of cells (what was stained)” value is “the entirety of the cells except nuclei was stained”. For the same compound, the “Emission maximum wavelengths of the two fitted fluorescence spectra in stained cells” value (100 nM, one hour, per-pixel spectra fitted) is 520 nm and 570 nm.
